From the supplement of paper PMC10849652
Some of the results follow.

By UniProt entry, the sequences of proteins in these tests, tags left out. Where a name states a change or a piece, a line headed by the entry shows the natural chain unless it says otherwise.
UniProt Q15046, whole entry, looked up: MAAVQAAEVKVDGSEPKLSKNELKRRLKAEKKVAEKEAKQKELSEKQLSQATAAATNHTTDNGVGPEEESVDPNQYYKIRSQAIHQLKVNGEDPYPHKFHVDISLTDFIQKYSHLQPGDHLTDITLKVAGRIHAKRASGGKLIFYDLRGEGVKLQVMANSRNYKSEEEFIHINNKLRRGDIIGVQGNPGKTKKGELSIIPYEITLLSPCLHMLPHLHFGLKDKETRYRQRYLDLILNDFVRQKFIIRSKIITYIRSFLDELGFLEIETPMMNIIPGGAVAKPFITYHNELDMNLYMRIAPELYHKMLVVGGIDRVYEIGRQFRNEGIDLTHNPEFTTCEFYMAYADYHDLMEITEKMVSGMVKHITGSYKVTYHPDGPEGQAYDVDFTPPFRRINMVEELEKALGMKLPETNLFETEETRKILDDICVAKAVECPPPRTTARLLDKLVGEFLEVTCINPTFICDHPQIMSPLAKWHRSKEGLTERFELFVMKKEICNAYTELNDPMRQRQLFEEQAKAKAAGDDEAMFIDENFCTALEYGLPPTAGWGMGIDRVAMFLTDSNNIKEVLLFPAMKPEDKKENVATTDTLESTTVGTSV
UniProt Q96SI1: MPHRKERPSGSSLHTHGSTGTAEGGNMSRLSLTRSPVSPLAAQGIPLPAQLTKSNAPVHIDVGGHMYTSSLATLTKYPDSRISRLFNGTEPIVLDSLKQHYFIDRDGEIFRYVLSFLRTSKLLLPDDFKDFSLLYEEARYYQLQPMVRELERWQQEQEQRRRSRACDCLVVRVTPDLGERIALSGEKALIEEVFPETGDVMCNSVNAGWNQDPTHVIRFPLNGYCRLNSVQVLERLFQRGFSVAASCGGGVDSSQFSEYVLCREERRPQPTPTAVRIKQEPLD
UniProt Q7L273: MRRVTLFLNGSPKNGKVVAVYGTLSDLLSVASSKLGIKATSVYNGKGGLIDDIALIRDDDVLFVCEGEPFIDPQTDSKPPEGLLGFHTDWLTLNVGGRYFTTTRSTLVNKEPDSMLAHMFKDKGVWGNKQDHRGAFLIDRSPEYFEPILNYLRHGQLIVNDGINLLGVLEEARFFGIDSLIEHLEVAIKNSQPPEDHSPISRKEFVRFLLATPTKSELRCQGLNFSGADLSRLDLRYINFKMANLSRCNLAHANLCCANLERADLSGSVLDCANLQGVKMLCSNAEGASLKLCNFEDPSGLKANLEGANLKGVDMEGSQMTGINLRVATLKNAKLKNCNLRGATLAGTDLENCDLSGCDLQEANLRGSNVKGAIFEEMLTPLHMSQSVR
UniProt Q13303: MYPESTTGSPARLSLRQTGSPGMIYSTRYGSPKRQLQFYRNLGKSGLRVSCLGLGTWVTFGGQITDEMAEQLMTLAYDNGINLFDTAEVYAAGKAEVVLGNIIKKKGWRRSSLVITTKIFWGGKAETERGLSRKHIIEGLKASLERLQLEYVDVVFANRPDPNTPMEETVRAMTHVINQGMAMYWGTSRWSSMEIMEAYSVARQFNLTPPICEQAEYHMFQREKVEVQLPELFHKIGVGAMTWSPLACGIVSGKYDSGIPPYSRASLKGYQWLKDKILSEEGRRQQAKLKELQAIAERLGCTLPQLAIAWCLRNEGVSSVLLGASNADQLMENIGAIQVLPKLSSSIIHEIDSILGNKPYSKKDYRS
UniProt Q9H1B7, whole entry, looked up: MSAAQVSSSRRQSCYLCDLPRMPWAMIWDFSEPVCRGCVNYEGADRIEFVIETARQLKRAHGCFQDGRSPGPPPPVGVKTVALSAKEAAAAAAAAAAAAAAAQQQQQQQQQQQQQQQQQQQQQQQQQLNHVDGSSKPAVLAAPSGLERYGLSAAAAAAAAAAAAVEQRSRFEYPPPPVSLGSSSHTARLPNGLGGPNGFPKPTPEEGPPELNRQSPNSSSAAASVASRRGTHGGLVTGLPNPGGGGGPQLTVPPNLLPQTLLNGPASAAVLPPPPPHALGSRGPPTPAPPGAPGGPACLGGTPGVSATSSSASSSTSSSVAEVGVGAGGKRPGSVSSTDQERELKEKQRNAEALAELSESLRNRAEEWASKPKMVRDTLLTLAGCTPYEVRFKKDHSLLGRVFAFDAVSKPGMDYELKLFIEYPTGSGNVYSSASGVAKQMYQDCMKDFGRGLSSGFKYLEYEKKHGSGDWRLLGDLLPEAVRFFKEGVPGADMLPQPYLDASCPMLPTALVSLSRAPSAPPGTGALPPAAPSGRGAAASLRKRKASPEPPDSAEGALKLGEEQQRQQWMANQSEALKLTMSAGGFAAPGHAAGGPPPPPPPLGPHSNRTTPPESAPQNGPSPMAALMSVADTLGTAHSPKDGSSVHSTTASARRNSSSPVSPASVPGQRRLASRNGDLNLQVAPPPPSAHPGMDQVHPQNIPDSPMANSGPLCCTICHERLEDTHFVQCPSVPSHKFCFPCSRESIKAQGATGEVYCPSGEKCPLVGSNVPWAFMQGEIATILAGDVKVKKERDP
UniProt Q14653: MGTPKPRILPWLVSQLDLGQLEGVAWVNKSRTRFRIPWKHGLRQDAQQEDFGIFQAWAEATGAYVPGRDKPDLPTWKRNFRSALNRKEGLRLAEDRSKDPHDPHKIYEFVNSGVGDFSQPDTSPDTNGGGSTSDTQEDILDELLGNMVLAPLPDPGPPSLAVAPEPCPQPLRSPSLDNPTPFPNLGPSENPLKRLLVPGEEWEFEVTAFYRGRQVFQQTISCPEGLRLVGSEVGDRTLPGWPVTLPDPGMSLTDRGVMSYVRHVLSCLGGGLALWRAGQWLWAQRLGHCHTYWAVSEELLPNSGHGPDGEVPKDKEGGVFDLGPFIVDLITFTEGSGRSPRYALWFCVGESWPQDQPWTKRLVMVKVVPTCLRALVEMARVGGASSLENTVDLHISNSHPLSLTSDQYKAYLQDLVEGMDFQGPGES
UniProt Q8NFY9: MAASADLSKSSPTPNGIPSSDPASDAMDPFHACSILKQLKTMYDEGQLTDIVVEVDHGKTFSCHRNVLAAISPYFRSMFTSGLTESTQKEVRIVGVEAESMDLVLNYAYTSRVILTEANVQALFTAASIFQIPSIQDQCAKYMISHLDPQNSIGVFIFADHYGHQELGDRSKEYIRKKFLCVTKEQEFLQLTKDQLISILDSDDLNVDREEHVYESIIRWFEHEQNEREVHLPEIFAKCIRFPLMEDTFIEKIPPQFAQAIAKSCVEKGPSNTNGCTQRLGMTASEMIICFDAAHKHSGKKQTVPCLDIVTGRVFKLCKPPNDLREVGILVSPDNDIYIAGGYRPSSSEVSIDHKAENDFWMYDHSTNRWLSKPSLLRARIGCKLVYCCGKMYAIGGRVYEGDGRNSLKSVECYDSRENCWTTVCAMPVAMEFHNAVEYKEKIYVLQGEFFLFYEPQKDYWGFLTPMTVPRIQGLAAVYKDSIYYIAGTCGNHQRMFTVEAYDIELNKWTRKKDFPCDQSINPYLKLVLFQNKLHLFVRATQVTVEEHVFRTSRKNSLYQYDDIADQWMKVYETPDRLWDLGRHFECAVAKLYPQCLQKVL
UniProt Q969R8: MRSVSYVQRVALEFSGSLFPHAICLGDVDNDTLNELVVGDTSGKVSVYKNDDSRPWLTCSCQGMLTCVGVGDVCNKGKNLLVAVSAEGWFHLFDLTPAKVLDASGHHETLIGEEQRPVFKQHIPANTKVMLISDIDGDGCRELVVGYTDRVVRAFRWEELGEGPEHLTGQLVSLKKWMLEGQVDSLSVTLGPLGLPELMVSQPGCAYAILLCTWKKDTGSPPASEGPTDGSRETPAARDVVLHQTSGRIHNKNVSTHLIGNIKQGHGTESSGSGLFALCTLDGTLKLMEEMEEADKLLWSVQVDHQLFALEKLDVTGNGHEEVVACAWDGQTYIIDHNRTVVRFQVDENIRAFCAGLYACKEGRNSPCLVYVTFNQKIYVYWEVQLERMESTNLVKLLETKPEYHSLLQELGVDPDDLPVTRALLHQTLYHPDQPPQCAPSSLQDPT
UniProt Q15051: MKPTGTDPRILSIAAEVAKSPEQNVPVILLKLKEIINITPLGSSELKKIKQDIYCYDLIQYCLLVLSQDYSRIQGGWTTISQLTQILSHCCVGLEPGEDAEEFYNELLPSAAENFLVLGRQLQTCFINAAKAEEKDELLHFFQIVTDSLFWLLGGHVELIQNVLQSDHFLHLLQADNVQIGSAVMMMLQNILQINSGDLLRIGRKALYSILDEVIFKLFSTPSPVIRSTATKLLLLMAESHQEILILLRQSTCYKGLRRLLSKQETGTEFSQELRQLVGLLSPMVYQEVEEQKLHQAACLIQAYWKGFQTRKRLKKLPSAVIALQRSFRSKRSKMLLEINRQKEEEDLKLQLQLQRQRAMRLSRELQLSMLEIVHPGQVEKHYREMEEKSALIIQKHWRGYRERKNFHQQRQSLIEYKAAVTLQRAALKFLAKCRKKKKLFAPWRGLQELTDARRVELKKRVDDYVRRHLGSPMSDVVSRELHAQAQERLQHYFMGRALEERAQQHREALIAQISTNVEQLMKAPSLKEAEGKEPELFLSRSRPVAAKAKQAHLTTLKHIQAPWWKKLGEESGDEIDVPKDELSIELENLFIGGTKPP
UniProt Q8NHM5: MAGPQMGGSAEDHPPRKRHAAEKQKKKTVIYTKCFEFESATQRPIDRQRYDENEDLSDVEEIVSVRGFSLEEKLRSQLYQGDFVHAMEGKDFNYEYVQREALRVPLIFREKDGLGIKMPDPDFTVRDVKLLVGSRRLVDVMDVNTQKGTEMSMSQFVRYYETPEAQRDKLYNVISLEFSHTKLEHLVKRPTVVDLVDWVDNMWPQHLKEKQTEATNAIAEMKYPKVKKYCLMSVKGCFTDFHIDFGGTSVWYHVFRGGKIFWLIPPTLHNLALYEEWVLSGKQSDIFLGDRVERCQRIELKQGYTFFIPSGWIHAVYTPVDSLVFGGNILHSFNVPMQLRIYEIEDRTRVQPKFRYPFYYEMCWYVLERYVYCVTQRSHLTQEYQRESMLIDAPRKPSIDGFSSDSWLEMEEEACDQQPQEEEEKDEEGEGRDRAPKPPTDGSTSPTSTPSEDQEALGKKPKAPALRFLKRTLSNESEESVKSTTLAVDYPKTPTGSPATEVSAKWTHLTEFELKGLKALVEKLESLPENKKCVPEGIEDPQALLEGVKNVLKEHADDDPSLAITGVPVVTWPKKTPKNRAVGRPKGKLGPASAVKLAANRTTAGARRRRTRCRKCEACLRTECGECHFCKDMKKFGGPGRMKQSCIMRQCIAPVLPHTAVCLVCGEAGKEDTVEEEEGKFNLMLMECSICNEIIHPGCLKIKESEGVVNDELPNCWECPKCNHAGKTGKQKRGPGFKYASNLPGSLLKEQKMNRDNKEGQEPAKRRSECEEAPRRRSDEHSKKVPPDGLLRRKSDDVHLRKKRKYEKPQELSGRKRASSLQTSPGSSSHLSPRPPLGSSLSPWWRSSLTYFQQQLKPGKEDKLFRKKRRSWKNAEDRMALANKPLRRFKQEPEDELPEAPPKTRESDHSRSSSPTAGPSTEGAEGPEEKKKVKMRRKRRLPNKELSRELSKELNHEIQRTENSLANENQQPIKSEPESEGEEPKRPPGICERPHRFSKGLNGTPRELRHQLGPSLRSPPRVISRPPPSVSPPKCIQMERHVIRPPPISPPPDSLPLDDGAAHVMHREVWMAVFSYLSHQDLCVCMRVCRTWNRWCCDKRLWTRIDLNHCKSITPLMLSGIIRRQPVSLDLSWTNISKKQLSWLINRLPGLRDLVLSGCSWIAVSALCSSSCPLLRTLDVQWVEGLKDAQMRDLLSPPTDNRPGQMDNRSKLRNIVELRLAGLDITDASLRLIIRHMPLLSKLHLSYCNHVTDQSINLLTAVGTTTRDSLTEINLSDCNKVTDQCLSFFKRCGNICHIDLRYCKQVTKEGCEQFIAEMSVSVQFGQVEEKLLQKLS
UniProt Q9UKP3: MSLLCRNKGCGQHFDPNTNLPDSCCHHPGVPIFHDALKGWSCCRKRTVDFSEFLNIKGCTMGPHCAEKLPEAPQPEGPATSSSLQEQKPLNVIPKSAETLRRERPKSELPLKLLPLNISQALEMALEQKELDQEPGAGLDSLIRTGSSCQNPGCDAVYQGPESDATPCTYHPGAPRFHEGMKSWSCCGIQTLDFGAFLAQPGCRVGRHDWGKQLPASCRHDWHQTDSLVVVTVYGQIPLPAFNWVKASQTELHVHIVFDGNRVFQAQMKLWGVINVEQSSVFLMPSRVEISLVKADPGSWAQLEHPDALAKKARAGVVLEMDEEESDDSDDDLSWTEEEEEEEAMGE
UniProt P17275: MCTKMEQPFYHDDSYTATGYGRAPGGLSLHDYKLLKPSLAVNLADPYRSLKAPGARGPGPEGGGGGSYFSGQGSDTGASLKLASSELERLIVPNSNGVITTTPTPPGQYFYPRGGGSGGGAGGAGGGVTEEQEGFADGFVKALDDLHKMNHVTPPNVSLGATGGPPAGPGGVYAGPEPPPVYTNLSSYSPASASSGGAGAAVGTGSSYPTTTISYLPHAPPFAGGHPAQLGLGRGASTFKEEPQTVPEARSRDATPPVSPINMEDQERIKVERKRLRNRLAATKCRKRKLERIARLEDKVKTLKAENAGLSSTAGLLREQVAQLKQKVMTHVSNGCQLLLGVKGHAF

Tests used:
Test in all cases: log2 fold change, soluble protein after heating vs DMSO (PISA); higher = thermal stabilisation; K562 lysate, 10 uM; active = over 0.2 and 3.5 SD of the protein, either way, in both replicates (recomputed)
lapatinib = compound: CS(=O)(=O)CCNCc1ccc(-c2ccc3ncnc(Nc4ccc(OCc5cccc(F)c5)c(Cl)c4)c3c2)o1 [lapatinib]
Procedure, shortened: (§1)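 Following dounce homogenisation of K562 pellets in PBS pH 7.4 with 1 mM MgCl2, crude extract at 1 mg/mL protein was incubated for 30 min with 10 μM compound. Aliquots were then heated for 3 min over 48°C-58°C and pooled, NP-40 was added to 0.5% at 4°C, and soluble protein was recovered as the supernatant at 21,000xg for 90 min. Channel-sum-equalised TMTpro 16plex LC-MS/MS quantified this protein. Each value, from duplicates, is a log-two fold change in thermal stability relative to solvent controls.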

pictilisib = compound: CS(=O)(=O)N1CCN(Cc2cc3nc(-c4cccc5[nH]ncc45)nc(N4CCOCC4)c3s2)CC1 [pictilisib]
Procedure, shortened: as §1

crizotinib = compound: C[C@@H](Oc1cc(-c2cnn(C3CCNCC3)c2)cnc1N)c1c(Cl)ccc(F)c1Cl [crizotinib]
Procedure, shortened: as §1

[1] = compound: C[C@H](C1=CC=C(C=C1)C(=O)NC2=C3C=CNC3=NC=C2)N
Procedure, shortened: as §1

duvelisib = compound: C[C@H](Nc1ncnc2nc[nH]c12)c1cc2cccc(Cl)c2c(=O)n1-c1ccccc1 [duvelisib]
Procedure, shortened: as §1

gandotinib = compound: Cc1cc(Nc2cc(CN3CCOCC3)c3nc(C)c(Cc4ccc(Cl)cc4F)n3n2)n[nH]1 [gandotinib]
Procedure, shortened: as §1

tozasertib = compound: Cc1cc(Nc2cc(N3CCN(C)CC3)nc(Sc3ccc(NC(=O)C4CC4)cc3)n2)n[nH]1 [tozasertib]
Procedure, shortened: as §1

doramapimod = compound: Cc1ccc(-n2nc(C(C)(C)C)cc2NC(=O)Nc2ccc(OCCN3CCOCC3)c3ccccc23)cc1 [doramapimod]
Procedure, shortened: as §1

bafetinib = compound: Cc1ccc(NC(=O)c2ccc(CN3CC[C@H](N(C)C)C3)c(C(F)(F)F)c2)cc1Nc1nccc(-c2cncnc2)n1 [bafetinib]
Procedure, shortened: as §1

[2] = compound: Cc1cccc(CC(=O)N2CCc3c2ccc(-c2cn(C)c4ncnc(N)c24)c3F)n1
Procedure, shortened: as §1

| Target | log2 fold change (lapatinib) | log2 fold change (pictilisib) | log2 fold change (crizotinib) | log2 fold change [1] | log2 fold change (duvelisib) | log2 fold change (gandotinib) | log2 fold change (tozasertib) | log2 fold change (doramapimod) | log2 fold change (bafetinib) | log2 fold change [2] |
| --- | --- | --- | --- | --- | --- | --- | --- | --- | --- | --- |
| KDELR2 (UniProt P33947) | inactive: -0.022 | inactive: 0.003 | inactive: 0.005 | inactive: -0.009 | inactive: 0.019 | inactive: -0.084 | inactive: -0.062 | inactive: -0.071 | inactive: -0.038 | inactive: 0.137 |
| KCMF1 (UniProt Q9P0J7) | inactive: -0.015 | inactive: -0.038 | inactive: -0.022 | inactive: -0.008 | inactive: 0.075 | inactive: -0.003 | inactive: -0.032 | inactive: 0.04 | inactive: -0.047 | inactive: 0.057 |
| KAT7 (UniProt O95251) | inactive: -0.039 | inactive: -0.038 | inactive: -0.072 | inactive: -0.176 | inactive: 0.017 | inactive: 0.185 | inactive: -0.007 | inactive: 0.046 | inactive: -0.027 | inactive: 0.139 |
| KARS1 (UniProt Q15046) | inactive: -0.002 | inactive: 0 | inactive: 0.003 | inactive: 0.036 | inactive: 0.004 | inactive: -0.082 | inactive: 0.025 | inactive: 0.007 | inactive: -0.025 | inactive: -0.026 |
| KCTD15 (UniProt Q96SI1) | inactive: 0.044 | inactive: -0.08 | inactive: 0.038 | inactive: 0.004 | inactive: 0.022 | inactive: 0.009 | inactive: -0.002 | inactive: -0.019 | inactive: -0.035 | inactive: -0.019 |
| IQSEC2 (UniProt Q5JU85) | inactive: -0.063 | inactive: -0.133 | inactive: -0.088 | inactive: -0.056 | inactive: 0.252 | inactive: -0.078 | inactive: -0.023 | inactive: 0.008 | inactive: -0.144 | inactive: -0.018 |
| ITGA5 (UniProt P08648) | inactive: -0.011 | inactive: -0.022 | inactive: 0.031 | inactive: 0 | inactive: 0.003 | inactive: 0.017 | inactive: -0.028 | inactive: -0.017 | inactive: -0.006 | inactive: -0.011 |
| IRF2BP1 (UniProt Q8IU81) | inactive: -0.01 | inactive: 0.008 | inactive: -0.052 | inactive: -0.004 | inactive: -0.086 | inactive: 0.004 | inactive: 0 | inactive: 0.105 | inactive: -0.1 | inactive: 0.043 |
| KCTD9 (UniProt Q7L273) | inactive: -0.003 | inactive: -0.025 | inactive: 0.051 | inactive: -0.036 | inactive: 0.019 | inactive: 0.036 | inactive: 0.057 | inactive: -0.035 | inactive: 0.045 | inactive: 0.035 |
| KCNAB2 (UniProt Q13303) | inactive: 0.018 | inactive: 0.011 | inactive: -0.059 | inactive: -0.074 | inactive: -0.019 | inactive: 0.028 | inactive: 0.066 | inactive: -0.029 | inactive: -0.031 | inactive: 0.025 |
| IRF2BP2 (UniProt Q7Z5L9) | inactive: -0.011 | inactive: -0.024 | inactive: 0.006 | inactive: -0.021 | inactive: -0.027 | inactive: 0.052 | inactive: -0.001 | inactive: 0.02 | inactive: 0.036 | inactive: -0.024 |
| ITGAV (UniProt P06756) | inactive: -0.015 | inactive: 0.003 | inactive: -0.005 | inactive: -0.054 | inactive: -0.007 | inactive: 0.001 | inactive: 0.012 | inactive: 0.014 | inactive: 0 | inactive: 0.011 |
| IRF2BPL (UniProt Q9H1B7) | inactive: 0.017 | inactive: 0.024 | inactive: -0.006 | inactive: -0.216 | inactive: 0.006 | inactive: 0.07 | inactive: -0.005 | inactive: -0.004 | inactive: -0.015 | inactive: 0.075 |
| IRF3 (UniProt Q14653) | inactive: -0.029 | inactive: -0.045 | inactive: -0.023 | inactive: -0.001 | inactive: 0.012 | inactive: -0.034 | inactive: -0.004 | inactive: 0.004 | inactive: -0.018 | inactive: -0.016 |
| KBTBD8 (UniProt Q8NFY9) | inactive: 0.016 | inactive: 0.026 | inactive: -0.047 | inactive: -0.011 | inactive: -0.038 | inactive: -0.003 | inactive: 0.006 | inactive: -0.012 | inactive: -0.133 | inactive: 0.053 |
| INTS2 (UniProt Q9H0H0) | inactive: 0.013 | inactive: -0.014 | inactive: -0.05 | inactive: 0.046 | inactive: -0.05 | inactive: -0.119 | inactive: 0.021 | inactive: 0.046 | inactive: -0.245 | inactive: 0.085 |

| Target | log2 fold change (lapatinib) | log2 fold change (pictilisib) | log2 fold change (crizotinib) | log2 fold change [1] | log2 fold change (duvelisib) | log2 fold change (gandotinib) | log2 fold change (tozasertib) | log2 fold change (doramapimod) | log2 fold change (bafetinib) | log2 fold change [2] |
| --- | --- | --- | --- | --- | --- | --- | --- | --- | --- | --- |
| KDM1B (UniProt Q8NB78) | inactive: -0.081 | inactive: -0.023 | inactive: -0.081 | inactive: 0.027 | inactive: 0.135 | inactive: 0.035 | inactive: -0.058 | inactive: 0.014 | inactive: -0.001 | inactive: 0.084 |
| ITFG2 (UniProt Q969R8) | inactive: 0.003 | inactive: -0.053 | inactive: 0.012 | inactive: -0.008 | inactive: 0.036 | inactive: 0.024 | inactive: 0.062 | inactive: 0.041 | inactive: -0.002 | inactive: 0.009 |
| IQCB1 (UniProt Q15051) | – | inactive: -0.05 | – | inactive: 0.071 | inactive: 0.117 | inactive: -0.198 | inactive: -0.003 | – | inactive: 0.013 | inactive: -0.01 |
| KANK2 isoform 2 (UniProt Q63ZY3) | inactive: -0.142 | – | – | inactive: 0.284 | inactive: 0.084 | inactive: -0.111 | inactive: -0.095 | – | – | inactive: 0.055 |
| KDM2A (UniProt Q9Y2K7) | – | inactive: 0.011 | – | inactive: 0.029 | inactive: 0.01 | inactive: -0.001 | inactive: -0.008 | – | inactive: -0.152 | inactive: -0.003 |
| JMY (UniProt Q8N9B5) | – | inactive: -0.315 | inactive: -0.164 | inactive: -0.098 | inactive: 0.099 | inactive: -0.014 | – | inactive: 0.171 | inactive: -0.249 | inactive: 0.095 |
| NA (UniProt J3KR12) | – | – | – | inactive: -0.113 | – | inactive: 0.226 | inactive: 0.394 | – | – | inactive: 1.01 |
| ITIH4 (UniProt Q14624) | – | inactive: 0.019 | – | inactive: 0.001 | inactive: -0.01 | inactive: 0.138 | inactive: 0.104 | – | inactive: -0.035 | inactive: 0.055 |
| KCTD13 (UniProt Q8WZ19) | – | inactive: -0.04 | inactive: -0.056 | – | inactive: -0.082 | – | – | inactive: 0.071 | inactive: 0.055 | – |
| JADE2 (UniProt Q9NQC1) | – | – | – | inactive: -0.114 | inactive: -0.109 | inactive: -0.139 | inactive: 0.26 | – | – | inactive: 0.088 |
| KDM3A (UniProt Q9Y4C1) | – | inactive: -0.048 | inactive: -0.036 | inactive: 0.125 | inactive: -0.065 | inactive: -0.02 | inactive: -0.008 | inactive: 0.059 | inactive: -0.044 | inactive: -0.077 |
| IPO5 (UniProt H0Y3V4) | inactive: 0.079 | – | – | inactive: 0.011 | inactive: -0.046 | inactive: 0.084 | inactive: -0.008 | – | – | inactive: -0.332 |
| KDM2B (UniProt Q8NHM5) | – | – | inactive: 0.018 | – | – | – | inactive: 0.048 | inactive: -0.263 | – | – |
| JAK1 (UniProt P23458) | – | inactive: -0.048 | inactive: 0.029 | – | – | – | inactive: -0.188 | inactive: 0.032 | inactive: 0.117 | – |
| ITGB1BP2 (UniProt Q9UKP3) | – | – | – | inactive: -0.18 | inactive: -0.005 | active: 0.86 | inactive: -0.259 | – | – | inactive: 0.548 |
| JUNB (UniProt P17275) | – | – | inactive: 0.031 | inactive: 0.05 | inactive: -0.133 | inactive: 0.084 | – | inactive: 0.099 | – | inactive: -0.075 |

Whole records, quoted from the list. Order of values: log2 fold change (lapatinib)	log2 fold change (pictilisib)	log2 fold change (crizotinib)	log2 fold change [1]	log2 fold change (duvelisib)	log2 fold change (gandotinib)	log2 fold change (tozasertib)	log2 fold change (doramapimod)	log2 fold change (bafetinib)	log2 fold change [2]
JADE2 (UniProt Q9NQC1) in the list: –	–	–	inactive: -0.114	inactive: -0.109	inactive: -0.139	inactive: 0.26	–	–	inactive: 0.088
KDM2A (UniProt Q9Y2K7) in the list: –	inactive: 0.011	–	inactive: 0.029	inactive: 0.01	inactive: -0.001	inactive: -0.008	–	inactive: -0.152	inactive: -0.003
